Assay [1] concerns the target T1, Nfs1-His6 (S. cerevisiae) (UniProt P25374).
T1 sequence: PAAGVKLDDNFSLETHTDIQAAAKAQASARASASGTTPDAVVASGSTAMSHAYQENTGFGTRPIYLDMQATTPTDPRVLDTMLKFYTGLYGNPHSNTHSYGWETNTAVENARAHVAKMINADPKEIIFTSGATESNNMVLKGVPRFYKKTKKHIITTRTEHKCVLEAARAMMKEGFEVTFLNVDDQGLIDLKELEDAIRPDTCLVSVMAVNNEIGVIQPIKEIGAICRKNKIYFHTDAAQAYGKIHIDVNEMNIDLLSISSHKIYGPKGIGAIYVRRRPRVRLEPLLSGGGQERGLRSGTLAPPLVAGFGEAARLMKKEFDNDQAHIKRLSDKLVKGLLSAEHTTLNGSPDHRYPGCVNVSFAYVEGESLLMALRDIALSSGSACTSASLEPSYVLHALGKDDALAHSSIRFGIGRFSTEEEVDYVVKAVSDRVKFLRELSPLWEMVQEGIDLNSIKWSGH
Briefly: affinity purification with mass spectrometry; Nfs1-His6 held on Ni-NTA superflow agarose from sonicated, cleared lysate of isolated mitochondria of the Gal-Nfs1-His6 yeast strain; 50 mM TrisCl pH 7.5, 80 mM KCl, 10% glycerol, wash 40 mM imidazole, elution 400 mM imidazole; eluate analysed by LC-MS/MS.

The chains behind the UniProt entries cited, without tags or fusion partners. Where a name states a change or a piece, a line headed by the entry shows the natural chain unless it says otherwise.
UniProt Q07540: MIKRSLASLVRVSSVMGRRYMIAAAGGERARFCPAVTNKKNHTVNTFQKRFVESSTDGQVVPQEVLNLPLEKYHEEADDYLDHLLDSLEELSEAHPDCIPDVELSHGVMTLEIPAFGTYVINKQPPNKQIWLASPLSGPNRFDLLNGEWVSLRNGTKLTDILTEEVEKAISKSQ

In assay [2] the target is Yfh1-His6 (S. cerevisiae) (UniProt Q07540). Briefly: affinity purification with mass spectrometry; Yfh1-His6 held on Ni-NTA superflow agarose from French-press lysate (108,000xg supernatant) of isolated mitochondria of the Yfh1-His6 yeast strain; 50 mM TrisCl pH 7.5, 80 mM KCl, 10% glycerol, wash 40 mM imidazole with 0.1% Triton X-100, elution 400 mM imidazole; eluate analysed by LC-MS/MS.

These are yes or no findings as the source states them, for the method shown. In cells and extracts the contact can be indirect. These calls come from enrichment with a bait or labelling near it, and not all partners need be listed. For some assays here: Sequences can lack the tags named with a protein.

B1: RNA-binding protein SRO9 (protein, UniProt P25567 1-434)
chain: MSAETAAANTATAPVPEVQEQESSKSKQVNLTPAPLPTSSPWKLAPTEIPVSTISIEDLDATRKKKNRTPTPKSSTATKWVPIKASITVSGTKRSGSKNGASNGNSNKSKNNKTAASSTSSSNANRKKKHHQHNAKKQQQMKKDGFESAVGEEDSKDATSQENGQSTQQQQPPHHRNHHHSHHHNSNGPQRRKFHNSNNAGMPQNQGFPPQFKPYQGRNARNNNNNRSKYHNHFHHNQQHPQQPMVKLQQQFYPVQPVLMAINNIARQIEYYFSEENLTVDNYLRSKLSKDGFAPLSLISKFYRVVNMSFGGDTNLILAALREIVANEAATVNVAEGTLAAKEGDNVTGEAKEPSPLDKYFVRSKSWSNWLPETFETEINIEKELVGDALDQFMISLPPVPQQEEESSTELASQEQETKEDSAPVAAGESESSL
Regarding B1, the binding entry in assay [1] and in assay [2] was “binds” in each case.

B2: C-1-tetrahydrofolate synthase, mitochondrial (protein, UniProt P09440 35-975)
chain: YHILSGRKLAQSIREKANDEIQAIKLKHPNFKPTLKIIQVGARPDSSTYVRMKLKASKDSNVDCIIEKLPAEITEVELLKKISDINDDDSIHGLLIQLPLPRHLDETTITNAVDFKKDVDGFHRYNAGELAKKGGKPYFIPCTPYGCMKLLEEAHVKLDGKNAVVLGRSSIVGNPIASLLKNANATVTVCHSHTRNIAEVVSQADIVIAACGIPQYVKSDWIKEGAVVIDVGINYVPDISKKSGQKLVGDVDFDSVKEKTSYITPVPGGVGPMTVAMLVSNVLLAAKRQFVESEKLPVIKPLPLHLESPVPSDIDISRAQSPKHIKQVAEELGIHSHELELYGHYKAKISPNIFKRLESRENGKYVLVAGITPTPLGEGKSTTTMGLVQALSAHLGKPSIANVRQPSLGPTLGVKGGAAGGGYAQVIPMDEFNLHLTGDIHAISAANNLLAAAIDTRMFHEATQKNDSTFYKRLVPRKKGIRKFTPSMQRRLKRLDIEKEDPDALTPEEVKRFARLNINPDTITIRRVVDINDRMLRQITIGEAATEKGFTRTTGFDITVASELMAILALSKSLHEMKERIGRMVIGADYDNKPVTVEDIGCTGALTALLRDAIKPNLMQTLEGTPVMVHAGPFANISIGASSVIADLMALKLVGSEKNPLNDKNIHEPGYVVTEAGFDFAMGGERFFDIKCRSSGLVPDAVVLVATVRALKSHGGAPNVKPGQSLPKEYTEENIDFVAKGVSNLVKQIENIKTFGIPVVVAINRFETDSQAEIEVIKKAALNAGASHAVTSNHWMEGGKGAVELAHAVVDATKEPKNFNFLYDVNSSIEDKLTSIVQKMYGGAKIEVSPEAQKKIDTYKKQGFGNLPICIAKTQYSLSHDPSLKGVPRGFTFPIRDVRASIGAGYLYALAAEIQTIPGLSTYAGYMAVEVDDDGEIEGLF
On to B2, for which the binding entry in assay [1] and in assay [2] was “binds” each time.

B3: Carbon catabolite-derepressing protein kinase (protein, UniProt P06782 1-633)
chain: MSSNNNTNTAPANANSSHHHHHHHHHHHHHGHGGSNSTLNNPKSSLADGAHIGNYQIVKTLGEGSFGKVKLAYHTTTGQKVALKIINKKVLAKSDMQGRIEREISYLRLLRHPHIIKLYDVIKSKDEIIMVIEYAGNELFDYIVQRDKMSEQEARRFFQQIISAVEYCHRHKIVHRDLKPENLLLDEHLNVKIADFGLSNIMTDGNFLKTSCGSPNYAAPEVISGKLYAGPEVDVWSCGVILYVMLCRRLPFDDESIPVLFKNISNGVYTLPKFLSPGAAGLIKRMLIVNPLNRISIHEIMQDDWFKVDLPEYLLPPDLKPHPEEENENNDSKKDGSSPDNDEIDDNLVNILSSTMGYEKDEIYESLESSEDTPAFNEIRDAYMLIKENKSLIKDMKANKSVSDELDTFLSQSPPTFQQQSKSHQKSQVDHETAKQHARRMASAITQQRTYHQSPFMDQYKEEDSTVSILPTSLPQIHRANMLAQGSPAASKISPLVTKKSKTRWHFGIRSRSYPLDVMGEIYIALKNLGAEWAKPSEEDLWTIKLRWKYDIGNKTNTNEKIPDLMKMVIQLFQIETNNYLVDFKFDGWESSYGDDTTVSNISEDEMSTFSAYPFLHLTTKLIMELAVNSQSN
For the molecule B3, the binding entry in assay [1] and in assay [2] was “binds” each time.

B4: Cytochrome b2, mitochondrial (protein, UniProt P00175 81-591)
chain: EPKLDMNKQKISPAEVAKHNKPDDCWVVINGYVYDLTRFLPNHPGGQDVIKFNAGKDVTAIFEPLHAPNVIDKYIAPEKKLGPLQGSMPPELVCPPYAPGETKEDIARKEQLKSLLPPLDNIINLYDFEYLASQTLTKQAWAYYSSGANDEVTHRENHNAYHRIFFKPKILVDVRKVDISTDMLGSHVDVPFYVSATALCKLGNPLEGEKDVARGCGQGVTKVPQMISTLASCSPEEIIEAAPSDKQIQWYQLYVNSDRKITDDLVKNVEKLGVKALFVTVDAPSLGQREKDMKLKFSNTKAGPKAMKKTNVEESQGASRALSKFIDPSLTWKDIEELKKKTKLPIVIKGVQRTEDVIKAAEIGVSGVVLSNHGGRQLDFSRAPIEVLAETMPILEQRNLKDKLEVFVDGGVRRGTDVLKALCLGAKGVGLGRPFLYANSCYGRNGVEKAIEILRDEIEMSMRLLGVTSIAELKPDLLDLSTLKARTVGVPNDVLYNEVYEGPTLTEFEDA
Regarding B4, the binding entry in assay [1] and in assay [2] was “binds” each time.

B5: Ketol-acid reductoisomerase, mitochondrial (protein, UniProt P06168 48-395)
chain: LKQINFGGTVETVYERADWPREKLLDYFKNDTFALIGYGSQGYGQGLNLRDNGLNVIIGVRKDGASWKAAIEDGWVPGKNLFTVEDAIKRGSYVMNLLSDAAQSETWPAIKPLLTKGKTLYFSHGFSPVFKDLTHVEPPKDLDVILVAPKGSGRTVRSLFKEGRGINSSYAVWNDVTGKAHEKAQALAVAIGSGYVYQTTFEREVNSDLYGERGCLMGGIHGMFLAQYDVLRENGHSPSEAFNETVEEATQSLYPLIGKYGMDYMYDACSTTARRGALDWYPIFKNALKPVFQDLYESTKNGTETKRSLEFNSQPDYREKLEKELDTIRNMEIWKVGKEVRKLRPENQ
As to B5, the binding entry in assay [1] and in assay [2] was “binds” each time.

B6: Nicotinamide-nucleotide adenylyltransferase 1 (protein, UniProt Q06178 1-401)
chain: MDPTRAPDFKPPSADEELIPPPDPESKIPKSIPIIPYVLADANSSIDAPFNIKRKKKHPKHHHHHHHSRKEGNDKKHQHIPLNQDDFQPLSAEVSSEDDDADFRSKERYGSDSTTESETRGVQKYQIADLEEVPHGIVRQARTLEDYEFPSHRLSKKLLDPNKLPLVIVACGSFSPITYLHLRMFEMALDAISEQTRFEVIGGYYSPVSDNYQKQGLAPSYHRVRMCELACERTSSWLMVDAWESLQPSYTRTAKVLDHFNHEINIKRGGVATVTGEKIGVKIMLLAGGDLIESMGEPNVWADADLHHILGNYGCLIVERTGSDVRSFLLSHDIMYEHRRNILIIKQLIYNDISSTKVRLFIRRAMSVQYLLPNSVIRYIQEHRLYVDQTEPVKQVLGNKE
B6: the binding result in assay [1] and in assay [2] was “binds” each time.

B7: Putative pterin-4-alpha-carbinolamine dehydratase (protein, UniProt P38744 1-120)
chain: MHNKIVRIASSALTGGKLLEKLKPLTRWEVQWDPNKTKCLGITREVTFKDYETTWAFLTRVSMRSHLWGHHPLIHTSYTWVKLELHTHDIDPKDGAHSQLSDIDVRMAKRIDSYIDEMTT
Consider B7, for which the binding entry in assay [1] and in assay [2] was “binds” each time.

B8: Potassium-activated aldehyde dehydrogenase, mitochondrial (protein, UniProt P46367 25-519)
chain: SHLPMTVPIKLPNGLEYEQPTGLFINNKFVPSKQNKTFEVINPSTEEEICHIYEGREDDVEEAVQAADRAFSNGSWNGIDPIDRGKALYRLAELIEQDKDVIASIETLDNGKAISSSRGDVDLVINYLKSSAGFADKIDGRMIDTGRTHFSYTKRQPLGVCGQIIPWNFPLLMWAWKIAPALVTGNTVVLKTAESTPLSALYVSKYIPQAGIPPGVINIVSGFGKIVGEAITNHPKIKKVAFTGSTATGRHIYQSAAAGLKKVTLELGGKSPNIVFADAELKKAVQNIILGIYYNSGEVCCAGSRVYVEESIYDKFIEEFKAASESIKVGDPFDESTFQGAQTSQMQLNKILKYVDIGKNEGATLITGGERLGSKGYFIKPTVFGDVKEDMRIVKEEIFGPVVTVTKFKSADEVINMANDSEYGLAAGIHTSNINTALKVADRVNAGTVWINTYNDFHHAVPFGGFNASGLGREMSVDALQNYLQVKAVRAKLDE
As to B8, the binding result in assay [1] and in assay [2] was “binds” in each case.

B9: Citrate synthase, mitochondrial (protein, UniProt P00890 38-479)
chain: SSASEQTLKERFAEIIPAKAEEIKKFKKEHGKTVIGEVLLEQAYGGMRGIKGLVWEGSVLDPEEGIRFRGRTIPEIQRELPKAEGSTEPLPEALFWLLLTGEIPTDAQVKALSADLAARSEIPEHVIQLLDSLPKDLHPMAQFSIAVTALESESKFAKAYAQGVSKKEYWSYTFEDSLDLLGKLPVIASKIYRNVFKDGKITSTDPNADYGKNLAQLLGYENKDFIDLMRLYLTIHSDHEGGNVSAHTTHLVGSALSSPYLSLAAGLNGLAGPLHGRANQEVLEWLFKLREEVKGDYSKETIEKYLWDTLNAGRVVPGYGHAVLRKTDPRYTAQREFALKHFPDYELFKLVSTIYEVAPGVLTKHGKTKNPWPNVDSHSGVLLQYYGLTEASFYTVLFGVARAIGVLPQLIIDRAVGAPIERPKSFSTEKYKELVKKIESKN
On to B9, for which the binding entry in assay [1] and in assay [2] was “binds” throughout.

B10: Serine hydroxymethyltransferase, mitochondrial (protein, UniProt P37292 21-490)
chain: LTSGAQSLVSKPVSEGDPEMFDILQQERHRQKHSITLIPSENFTSKAVMDLLGSELQNKYSEGYPGERYYGGNEIIDKSESLCQARALELYGLDPAKWGVNVQPLSGAPANLYVYSAIMNVGERLMGLDLPDGGHLSHGYQLKSGTPISFISKYFQSMPYHVDHTTGLIDYDNLQVLAKAFRPKVIVAGTSAYSRLIDYARFKEISQGCGAYLMSDMAHISGLVAANVVPSPFEHSDIVTTTTHKSLRGPRGAMIFFRKGIKSVTKKGKEIPYELEKKINFSVFPGHQGGPHNHTIGAMAVALKQAMSPEFKEYQQKIVDNSKWFAQELTKMGYKLVSGGTDNHLIVIDLSGTQVDGARVETILSALNIAANKNTIPGDKSALFPSGLRIGTPAMTTRGFGREEFSQVAKYIDSAVKLAENLKTLEPTTKLDARSRLNEFKKLCNESSEVAALSGEISKWVGQYPVPGDI
For B10, the binding result in assay [1] and in assay [2] was “binds” in each case.

The values above are taken from paper PMC5675994.
